The results in this text go back to publication PMC7230731, “Marine-Inspired Bis-indoles Possessing Antiproliferative Activity against Breast Cancer; Design, Synthesis, and Biological Evaluation” (Marine Drugs, 2020).

In this assay the test system is MDA-MB-231 cells. The experiment in a line: SRB antiproliferative assay, MDA-MB-231. It is filed as cell-based. The conditions noted are these: Homo sapiens, MDA-MB-231, 48 h, MDA-MB-231 triple-negative breast cancer cells, mean ± S.D. of three experiments. How it is done: 1. Anti-proliferative action toward human breast cell lines […]
and non-tumorigenic human breast epithelial cell line (MCF-10A) have been obtained from American Type Culture Collection (ATCC). The cells were maintained in Dulbecco's modified Eagle's medium (DMEM) supplemented with 10% heat inactivated fetal calf serum (GIBCO), penicillin (100 U/ml) and streptomycin (100 µg/ml) at 37 °C in humidified atmosphere containing 5% CO2. […]
grown in a 25 cm2 flask in 5 ml of culture medium.
The anti-proliferative activity of the tested compounds was measured in vitro using the Sulfo-Rhodamine-B stain (SRB) assay. Briefly, Cells were inoculated in 96-well microtiter plate (5X104 cells/ well) for 24 h before treatment with the tested compounds to allow attachment of cell to the wall of the plate. Tested compounds were dissolved in DMSO at 1 mg/ml immediately before use and diluted to the appropriate volume just before addition to the cell culture. Different concentrations of tested compounds, doxorubicin and sorafenib were added to the cells (three wells were prepared for each […]
atmosphere of 5% CO2. After 48 h cells were fixed, washed, and stained for 30 min with 0.4% (w/v) SRB dissolved in 1% acetic acid. Unbound dye was removed by four washes with 1% acetic acid, and attached stain was recovered with Tris-EDTA buffer. Color intensity was measured in an ELISA reader. […]

The compound `CN[C@@H]1C[C@H]2O[C@@](C)([C@@H]1OC)n1c3ccccc3c3c4c(c5c6ccccc6n2c5c31)C(=O)NC4` [Staurosporine, reference compound] came in with an IC50 of 10.3 ± 0.72 µM.

By IC50 is commonly meant the point on the concentration scale where inhibition reaches its midpoint. Low values mean greater potency in that assay, high ones weaker potency in that assay.
